Assay results from the supplement of paper PMC12823440, “Inhibitors supercharge kinase turnover through native proteolytic circuits” (Nature, 2025).
The list shows a part of the results. Hit calls seldom repeat between salt and free forms of one compound.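 Kinases, fused to nanoluciferase, were expressed in K562 cells; luminescence was measured every 4 h from 2 to 18 h as percent of control (DMSO = 100%, positive control = 0%). A time point is decreased if signal falls significantly (2 sigma). Hits were called by the authors by a rule that is not shown; the count of time points alone does not decide it.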

Sequences of proteins named here, by UniProt entry; tags and fusion partners are left off. A change or cut given only in a name is not applied to a line headed by its entry.
UniProt Q01974, whole entry: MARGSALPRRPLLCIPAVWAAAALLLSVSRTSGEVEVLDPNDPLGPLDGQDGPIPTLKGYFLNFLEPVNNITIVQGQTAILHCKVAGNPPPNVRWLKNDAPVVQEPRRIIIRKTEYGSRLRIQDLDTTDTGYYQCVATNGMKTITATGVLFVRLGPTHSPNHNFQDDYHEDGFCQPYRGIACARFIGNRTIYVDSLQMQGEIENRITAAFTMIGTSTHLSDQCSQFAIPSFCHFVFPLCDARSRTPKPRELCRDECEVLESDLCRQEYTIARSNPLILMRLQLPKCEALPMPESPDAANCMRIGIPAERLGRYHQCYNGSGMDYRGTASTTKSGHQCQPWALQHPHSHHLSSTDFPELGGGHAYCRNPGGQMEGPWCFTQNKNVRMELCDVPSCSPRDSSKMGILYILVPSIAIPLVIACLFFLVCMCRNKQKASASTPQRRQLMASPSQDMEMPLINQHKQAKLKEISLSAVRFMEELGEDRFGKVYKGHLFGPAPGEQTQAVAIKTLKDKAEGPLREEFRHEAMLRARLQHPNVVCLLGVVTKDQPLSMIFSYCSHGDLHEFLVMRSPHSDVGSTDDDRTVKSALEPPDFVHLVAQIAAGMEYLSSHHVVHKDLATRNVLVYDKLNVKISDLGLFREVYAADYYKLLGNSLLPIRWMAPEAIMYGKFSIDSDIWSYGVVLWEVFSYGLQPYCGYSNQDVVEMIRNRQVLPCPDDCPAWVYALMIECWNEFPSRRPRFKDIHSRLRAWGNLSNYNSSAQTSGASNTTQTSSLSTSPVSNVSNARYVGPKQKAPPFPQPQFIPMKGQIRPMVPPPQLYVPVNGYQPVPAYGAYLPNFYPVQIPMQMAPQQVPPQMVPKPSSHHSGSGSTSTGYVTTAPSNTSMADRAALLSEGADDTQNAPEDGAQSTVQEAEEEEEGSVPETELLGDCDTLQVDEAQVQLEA
UniProt Q15418, whole entry: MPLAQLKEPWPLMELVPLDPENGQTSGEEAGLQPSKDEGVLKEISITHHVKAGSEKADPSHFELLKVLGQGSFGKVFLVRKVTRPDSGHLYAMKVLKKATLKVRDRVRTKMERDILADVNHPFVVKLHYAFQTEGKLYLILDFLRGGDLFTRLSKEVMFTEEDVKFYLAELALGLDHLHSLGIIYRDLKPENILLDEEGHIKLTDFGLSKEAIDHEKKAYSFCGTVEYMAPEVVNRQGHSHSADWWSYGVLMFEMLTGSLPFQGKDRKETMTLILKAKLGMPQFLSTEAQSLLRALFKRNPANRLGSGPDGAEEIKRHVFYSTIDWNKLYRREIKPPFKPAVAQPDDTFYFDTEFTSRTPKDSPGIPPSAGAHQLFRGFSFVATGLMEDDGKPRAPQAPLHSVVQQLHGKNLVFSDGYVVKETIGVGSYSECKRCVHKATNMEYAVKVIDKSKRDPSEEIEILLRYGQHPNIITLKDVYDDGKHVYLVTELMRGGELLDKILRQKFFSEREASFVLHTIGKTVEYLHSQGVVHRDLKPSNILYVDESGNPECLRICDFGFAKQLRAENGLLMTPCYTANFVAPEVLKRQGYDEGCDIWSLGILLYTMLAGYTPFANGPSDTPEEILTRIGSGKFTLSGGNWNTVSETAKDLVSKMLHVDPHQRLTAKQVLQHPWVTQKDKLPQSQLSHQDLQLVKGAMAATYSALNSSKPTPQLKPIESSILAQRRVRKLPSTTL
UniProt Q9NYA1, whole entry: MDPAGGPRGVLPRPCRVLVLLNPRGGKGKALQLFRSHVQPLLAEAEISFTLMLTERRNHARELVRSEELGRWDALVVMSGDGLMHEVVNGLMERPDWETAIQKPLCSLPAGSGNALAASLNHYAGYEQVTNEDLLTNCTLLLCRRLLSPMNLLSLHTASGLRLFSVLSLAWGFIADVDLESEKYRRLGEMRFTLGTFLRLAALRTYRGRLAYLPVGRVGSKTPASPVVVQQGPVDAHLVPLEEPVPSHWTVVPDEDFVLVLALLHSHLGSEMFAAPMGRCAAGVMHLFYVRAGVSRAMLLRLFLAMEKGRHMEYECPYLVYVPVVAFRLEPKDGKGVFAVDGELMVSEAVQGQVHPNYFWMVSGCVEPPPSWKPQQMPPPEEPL
UniProt Q15208: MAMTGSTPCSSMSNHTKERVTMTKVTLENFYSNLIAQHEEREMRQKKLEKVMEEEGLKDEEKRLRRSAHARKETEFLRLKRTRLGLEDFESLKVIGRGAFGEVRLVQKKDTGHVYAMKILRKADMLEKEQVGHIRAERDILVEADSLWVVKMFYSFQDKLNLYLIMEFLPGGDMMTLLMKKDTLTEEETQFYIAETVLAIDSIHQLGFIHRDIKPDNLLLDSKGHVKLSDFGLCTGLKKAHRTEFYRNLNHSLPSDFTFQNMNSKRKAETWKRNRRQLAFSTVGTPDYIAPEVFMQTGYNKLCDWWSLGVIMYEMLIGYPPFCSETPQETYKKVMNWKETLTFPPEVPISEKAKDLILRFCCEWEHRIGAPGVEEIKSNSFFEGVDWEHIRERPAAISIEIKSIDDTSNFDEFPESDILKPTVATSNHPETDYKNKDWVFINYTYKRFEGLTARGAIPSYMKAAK
UniProt P29597: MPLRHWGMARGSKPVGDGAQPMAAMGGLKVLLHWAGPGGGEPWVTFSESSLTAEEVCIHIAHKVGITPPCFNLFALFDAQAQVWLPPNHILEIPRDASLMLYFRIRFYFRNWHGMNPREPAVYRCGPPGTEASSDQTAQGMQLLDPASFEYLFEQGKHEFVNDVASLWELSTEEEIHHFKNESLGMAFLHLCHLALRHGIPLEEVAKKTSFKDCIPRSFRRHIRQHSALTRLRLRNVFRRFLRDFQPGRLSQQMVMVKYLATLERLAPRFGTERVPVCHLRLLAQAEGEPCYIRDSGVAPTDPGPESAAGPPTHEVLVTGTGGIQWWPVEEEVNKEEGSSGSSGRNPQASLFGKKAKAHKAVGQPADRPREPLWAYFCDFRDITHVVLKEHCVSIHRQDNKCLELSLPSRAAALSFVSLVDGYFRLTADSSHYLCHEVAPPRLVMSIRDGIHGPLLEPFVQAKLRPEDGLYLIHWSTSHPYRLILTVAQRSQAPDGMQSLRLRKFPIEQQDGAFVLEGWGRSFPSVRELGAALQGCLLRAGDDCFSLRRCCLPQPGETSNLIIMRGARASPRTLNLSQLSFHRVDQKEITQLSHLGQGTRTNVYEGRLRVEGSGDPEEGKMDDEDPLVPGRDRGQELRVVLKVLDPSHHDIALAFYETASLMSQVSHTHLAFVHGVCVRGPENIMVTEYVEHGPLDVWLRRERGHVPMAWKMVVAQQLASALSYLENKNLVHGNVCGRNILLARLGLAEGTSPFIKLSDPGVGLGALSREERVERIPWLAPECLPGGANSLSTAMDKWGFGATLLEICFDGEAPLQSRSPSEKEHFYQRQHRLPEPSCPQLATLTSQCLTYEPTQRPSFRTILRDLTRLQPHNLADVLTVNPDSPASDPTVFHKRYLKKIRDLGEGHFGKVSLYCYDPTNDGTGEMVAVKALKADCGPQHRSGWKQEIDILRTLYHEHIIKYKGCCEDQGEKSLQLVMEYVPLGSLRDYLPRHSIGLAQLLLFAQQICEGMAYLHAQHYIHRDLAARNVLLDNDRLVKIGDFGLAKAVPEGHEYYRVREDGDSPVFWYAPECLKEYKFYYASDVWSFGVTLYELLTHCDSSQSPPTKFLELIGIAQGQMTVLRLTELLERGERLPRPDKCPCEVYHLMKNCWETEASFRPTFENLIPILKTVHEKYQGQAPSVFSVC
UniProt Q6PHR2: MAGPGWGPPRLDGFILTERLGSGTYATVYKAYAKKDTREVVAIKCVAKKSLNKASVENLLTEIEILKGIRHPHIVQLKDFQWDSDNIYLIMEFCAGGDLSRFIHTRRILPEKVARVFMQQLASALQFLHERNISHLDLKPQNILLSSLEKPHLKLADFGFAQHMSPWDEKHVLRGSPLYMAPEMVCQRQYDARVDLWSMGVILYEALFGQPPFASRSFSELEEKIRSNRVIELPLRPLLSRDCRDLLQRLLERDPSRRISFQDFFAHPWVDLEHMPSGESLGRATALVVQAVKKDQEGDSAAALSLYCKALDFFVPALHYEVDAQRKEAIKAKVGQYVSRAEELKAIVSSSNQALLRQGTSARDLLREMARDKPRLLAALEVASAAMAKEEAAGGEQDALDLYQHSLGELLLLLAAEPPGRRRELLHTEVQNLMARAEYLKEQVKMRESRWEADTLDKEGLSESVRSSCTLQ
UniProt P07947, whole entry, looked up: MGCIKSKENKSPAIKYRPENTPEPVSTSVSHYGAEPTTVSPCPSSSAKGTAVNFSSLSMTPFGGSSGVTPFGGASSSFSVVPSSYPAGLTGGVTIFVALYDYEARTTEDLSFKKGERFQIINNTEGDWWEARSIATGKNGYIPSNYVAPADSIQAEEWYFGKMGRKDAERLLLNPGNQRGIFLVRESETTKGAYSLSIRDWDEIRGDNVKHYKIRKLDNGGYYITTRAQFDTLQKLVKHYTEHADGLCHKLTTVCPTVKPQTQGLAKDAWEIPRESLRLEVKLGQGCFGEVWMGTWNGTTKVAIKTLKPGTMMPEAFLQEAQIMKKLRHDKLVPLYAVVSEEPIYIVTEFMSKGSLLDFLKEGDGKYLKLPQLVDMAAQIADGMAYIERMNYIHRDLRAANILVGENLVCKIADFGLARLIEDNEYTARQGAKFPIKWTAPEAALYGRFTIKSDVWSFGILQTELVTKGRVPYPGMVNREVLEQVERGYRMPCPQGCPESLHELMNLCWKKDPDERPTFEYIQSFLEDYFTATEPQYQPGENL
UniProt P43403: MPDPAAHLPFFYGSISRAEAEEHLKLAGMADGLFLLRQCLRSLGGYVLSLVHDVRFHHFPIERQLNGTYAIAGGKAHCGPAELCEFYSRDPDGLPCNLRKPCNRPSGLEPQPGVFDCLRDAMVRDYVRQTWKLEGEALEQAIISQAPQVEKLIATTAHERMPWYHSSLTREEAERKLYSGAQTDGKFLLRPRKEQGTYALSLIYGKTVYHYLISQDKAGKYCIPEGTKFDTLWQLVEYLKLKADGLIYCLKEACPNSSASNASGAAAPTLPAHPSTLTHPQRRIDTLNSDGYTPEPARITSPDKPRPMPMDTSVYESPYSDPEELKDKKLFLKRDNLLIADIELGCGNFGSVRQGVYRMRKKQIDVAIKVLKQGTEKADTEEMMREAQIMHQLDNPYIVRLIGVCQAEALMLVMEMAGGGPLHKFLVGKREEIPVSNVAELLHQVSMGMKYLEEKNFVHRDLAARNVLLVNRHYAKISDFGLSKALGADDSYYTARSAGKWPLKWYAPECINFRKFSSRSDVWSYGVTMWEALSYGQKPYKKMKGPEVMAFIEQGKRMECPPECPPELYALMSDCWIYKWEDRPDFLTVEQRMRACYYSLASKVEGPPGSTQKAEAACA
UniProt P11802: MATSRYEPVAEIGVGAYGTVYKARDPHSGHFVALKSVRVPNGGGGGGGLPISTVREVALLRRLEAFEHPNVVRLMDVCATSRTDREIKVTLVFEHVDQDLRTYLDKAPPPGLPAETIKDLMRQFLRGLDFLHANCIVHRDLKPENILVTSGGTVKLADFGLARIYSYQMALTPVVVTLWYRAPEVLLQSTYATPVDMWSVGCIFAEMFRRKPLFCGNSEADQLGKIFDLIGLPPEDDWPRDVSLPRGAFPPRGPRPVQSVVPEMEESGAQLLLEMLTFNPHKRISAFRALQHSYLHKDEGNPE
UniProt P50613: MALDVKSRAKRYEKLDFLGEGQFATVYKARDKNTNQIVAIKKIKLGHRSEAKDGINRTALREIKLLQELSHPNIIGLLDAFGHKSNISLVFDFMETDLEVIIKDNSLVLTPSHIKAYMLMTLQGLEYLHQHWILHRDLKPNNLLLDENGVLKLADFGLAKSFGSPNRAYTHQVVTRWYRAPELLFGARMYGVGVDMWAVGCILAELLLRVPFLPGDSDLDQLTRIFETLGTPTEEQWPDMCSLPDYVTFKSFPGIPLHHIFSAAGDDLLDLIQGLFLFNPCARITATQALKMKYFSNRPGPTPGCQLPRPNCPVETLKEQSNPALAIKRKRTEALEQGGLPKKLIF
UniProt P50750, whole entry: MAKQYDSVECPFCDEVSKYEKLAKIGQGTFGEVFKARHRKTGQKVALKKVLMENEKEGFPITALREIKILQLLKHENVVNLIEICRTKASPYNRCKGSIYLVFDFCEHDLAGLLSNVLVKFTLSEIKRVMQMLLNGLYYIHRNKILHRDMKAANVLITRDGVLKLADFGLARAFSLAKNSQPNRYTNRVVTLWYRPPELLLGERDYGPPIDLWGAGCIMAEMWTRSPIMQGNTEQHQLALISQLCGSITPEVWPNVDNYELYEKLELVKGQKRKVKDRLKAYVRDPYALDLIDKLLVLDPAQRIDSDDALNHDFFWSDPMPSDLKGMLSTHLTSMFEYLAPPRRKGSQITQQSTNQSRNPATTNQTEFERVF

Key:
Details in all cases: K562; 2-18 h
ROR2 = ROR2 (UniProt Q01974); test: number of time points (of 5) at which kinase-Nluc abundance scored as decreased, DMSO-normalised (count); higher = more persistent destabilization
RPS6KA1 = RPS6KA1 (UniProt Q15418); test: as above
SPHK1 = SPHK1 (UniProt Q9NYA1); test: as above
SRC = SRC (UniProt P12931); test: as above
STK24 = STK24 (UniProt Q9Y6E0); test: as above
STK38 = STK38 (UniProt Q15208); test: as above
SYK = SYK (UniProt P43405); test: as above
TEC = TEC (UniProt P42680); test: as above
TYK2 = TYK2 (UniProt P29597); test: as above
ULK3 = ULK3 (UniProt Q6PHR2); test: as above
YES1 = YES1 (UniProt P07947); test: as above
ZAK = ZAK (UniProt Q9NYL2); test: as above
ZAP70 = ZAP70 (UniProt P43403); test: as above
CDK4 = CDK4 (UniProt P11802); test: number of time points (of 4; 2 h point missing) at which kinase-Nluc abundance scored as decreased, DMSO-normalised (count); higher = more persistent destabilization
CDK7 = CDK7 (UniProt P50613); test: as above
CDK9 = CDK9 (UniProt P50750); test: as above

| SMILES | number of time points (ROR2) | number of time points (RPS6KA1) | number of time points (SPHK1) | number of time points (SRC) | number of time points (STK24) | number of time points (STK38) | number of time points (SYK) | number of time points (TEC) | number of time points (TYK2) | number of time points (ULK3) | number of time points (YES1) | number of time points (ZAK) | number of time points (ZAP70) | number of time points (CDK4) | number of time points (CDK7) | number of time points (CDK9) |
| --- | --- | --- | --- | --- | --- | --- | --- | --- | --- | --- | --- | --- | --- | --- | --- | --- |
| Cn1cc(-c2ccc3nnc(Sc4ccc5ncccc5c4)n3n2)cn1 (10 µM) | 0 | 0 | 0 | 0 | 0 | 0 | 0 | 0 | 0 | 0 | 0 | 0 | 0 | 0 | 0 | 0 |
| C[C@@H](c1ccc(-c2ccccc2)c(F)c1)c1cc(NC(=N)N2CCOCC2)on1 [Rimacalib] (10 µM) | 0 | 0 | 0 | 0 | 0 | 0 | 0 | 0 | 0 | 0 | 0 | 0 | 0 | 0 | 0 | 0 |
| CC(C)(C)c1nc(-c2cccc(NS(=O)(=O)c3c(F)cccc3F)c2F)c(-c2ccnc(N)n2)s1 [Dabrafenib] (2.5 µM) | 0 | 0 | 0 | 0 | 0 | 0 | 0 | 0 | 0 | 0 | 0 | 0 | 0 | 0 | 0 | 0 |
| Cc1nc(-c2cn3c(n2)-c2ccc(-c4cnn(C(C)(C)C(N)=O)c4)cc2OCC3)n(C(C)C)n1 [Taselisib] (10 µM) | 0 | 0 | 0 | 0 | 0 | 0 | 0 | 0 | 0 | 0 | 0 | 0 | 0 | 0 | 0 | 0 |
| CCN1CCN(Cc2ccc(Nc3ncc(F)c(-c4cc(F)c5nc(C)n(C(C)C)c5c4)n3)nc2)CC1 [Abemaciclib (methanesulfonate)] (10 µM) | 0 | 0 | 0 | 0 | 0 | 0 | 0 | 0 | 0 | 0 | 0 | 0 | 0 | 0 | 0 | 0 |
| Cc1ccc(C(=O)Nc2ccc(Oc3cc4cnn(C)c4cc3-c3cn[nH]c3)c(F)c2)c(=O)n1-c1ccc(F)cc1 [Merestinib] (2.5 µM) | 0 | 0 | 0 | 0 | 0 | 0 | 0 | 0 | 0 | 0 | 0 | 0 | 0 | 0 | 0 | 1 |
| COc1ccc(OC)c(C2C(C#N)=C(N)Oc3n[nH]c(-c4ccc5ccccc5c4)c32)c1 (stereo not drawn) (10 µM) | 0 | 0 | 0 | 0 | 0 | 0 | 0 | 0 | 0 | 0 | 0 | 0 | 0 | 0 | 0 | 0 |
| CC(=O)c1c(C)cc2cccc(O)c2c1O [Nepodin] (10 µM) | 0 | 0 | 0 | 0 | 0 | 0 | 0 | 0 | 0 | 0 | 0 | 0 | 0 | 0 | 0 | 0 |
| CN1CCN(c2cnc3c(C4CCN(C(=O)c5ccc(OC(F)(F)F)cc5N)CC4)ncnc3c2)CC1 (10 µM) | 0 | 0 | 0 | 0 | 0 | 0 | 0 | 0 | 0 | 0 | 0 | 0 | 0 | 0 | 0 | 0 |
| Cc1cccc(Oc2cnc(=O)[nH]c2)c1 [Tolimidone] (10 µM) | 0 | 0 | 0 | 0 | 0 | 0 | 0 | 0 | 0 | 0 | 0 | 0 | 0 | 0 | 0 | 0 |
| COc1cc2ncnc(Nc3ccc(Cl)cc3F)c2cc1OC (10 µM) | 0 | 0 | 0 | 0 | 0 | 0 | 0 | 0 | 0 | 0 | 0 | 0 | 0 | 0 | 0 | 0 |
| CC1CCc2c(cc(Br)c(F)c2Br)N1C=O (stereo not drawn) (10 µM) | 0 | 0 | 0 | 0 | 0 | 0 | 0 | 0 | 0 | 0 | 0 | 0 | 0 | 0 | 0 | 0 |
| Cc1cc(O)c2c(c1)C(=O)c1cc(O)cc(O)c1C2=O [Emodin] (10 µM) | 0 | 0 | 4 | 0 | 0 | 0 | 0 | 0 | 0 | 0 | 0 | 0 | 0 | 0 | 0 | 0 |

Single records (already shown). Order of values: number of time points (ROR2)	number of time points (RPS6KA1)	number of time points (SPHK1)	number of time points (SRC)	number of time points (STK24)	number of time points (STK38)	number of time points (SYK)	number of time points (TEC)	number of time points (TYK2)	number of time points (ULK3)	number of time points (YES1)	number of time points (ZAK)	number of time points (ZAP70)	number of time points (CDK4)	number of time points (CDK7)	number of time points (CDK9)
`Cn1cc(-c2ccc3nnc(Sc4ccc5ncccc5c4)n3n2)cn1` (10 µM) in the list: 0	0	0	0	0	0	0	0	0	0	0	0	0	0	0	0
`CC(C)(C)c1nc(-c2cccc(NS(=O)(=O)c3c(F)cccc3F)c2F)c(-c2ccnc(N)n2)s1` [Dabrafenib] (2.5 µM) in the list: 0	0	0	0	0	0	0	0	0	0	0	0	0	0	0	0
